In paper PMC10931566:
Results are given in words; binding and its absence hold for the method and conditions named. Binding seen in cells or lysates may run through a third protein.

The chains behind the UniProt entries cited, without tags or fusion partners.
UniProt Q92847: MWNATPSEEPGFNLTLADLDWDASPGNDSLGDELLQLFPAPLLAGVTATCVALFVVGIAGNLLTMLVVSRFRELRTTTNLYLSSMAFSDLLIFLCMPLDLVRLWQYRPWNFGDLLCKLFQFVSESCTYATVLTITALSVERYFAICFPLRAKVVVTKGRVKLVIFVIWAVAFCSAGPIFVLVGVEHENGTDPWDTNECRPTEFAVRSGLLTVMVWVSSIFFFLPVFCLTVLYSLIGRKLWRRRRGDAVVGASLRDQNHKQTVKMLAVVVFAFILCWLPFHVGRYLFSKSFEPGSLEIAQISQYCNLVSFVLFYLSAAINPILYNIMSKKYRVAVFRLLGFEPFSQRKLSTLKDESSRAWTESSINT

Target: NMDA receptor (NMDAR) formed by NR1A fused to Renilla luciferase (NR1A-Rluc) plus NR2B (human) (UniProt Q05586+Q13224)
Test: FRET or BRET; BRET saturation in living HEK-293T cells: constant cDNA for NR1A-Rluc and NR2B, increasing cDNA for CB1R-YFP or GHSR1a-YFP; 5 µM coelenterazine H, HBSS pH 7.4 with 0.1% glucose; cells treated or not with 10 µg/L human α-syn fibrils for 48 h

binding: no binding
Substance: ghrelin receptor GHSR1a fused to the yellow fluorescent protein (GHSR1a-YFP) (from UniProt Q92847 1-366)
